Data from the supplement of paper PMC10849652.
This is one part of the list.

Chains of the proteins cited; added tags and fusions are not shown. Lines headed by an entry give the natural chain unless they say otherwise; changes in a name come on top.
UniProt O00194: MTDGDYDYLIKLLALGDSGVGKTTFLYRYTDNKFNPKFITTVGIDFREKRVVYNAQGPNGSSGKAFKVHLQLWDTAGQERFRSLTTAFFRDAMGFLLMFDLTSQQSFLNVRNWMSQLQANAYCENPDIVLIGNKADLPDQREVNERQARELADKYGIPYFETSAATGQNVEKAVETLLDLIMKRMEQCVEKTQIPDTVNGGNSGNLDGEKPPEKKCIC
UniProt Q6GYQ0: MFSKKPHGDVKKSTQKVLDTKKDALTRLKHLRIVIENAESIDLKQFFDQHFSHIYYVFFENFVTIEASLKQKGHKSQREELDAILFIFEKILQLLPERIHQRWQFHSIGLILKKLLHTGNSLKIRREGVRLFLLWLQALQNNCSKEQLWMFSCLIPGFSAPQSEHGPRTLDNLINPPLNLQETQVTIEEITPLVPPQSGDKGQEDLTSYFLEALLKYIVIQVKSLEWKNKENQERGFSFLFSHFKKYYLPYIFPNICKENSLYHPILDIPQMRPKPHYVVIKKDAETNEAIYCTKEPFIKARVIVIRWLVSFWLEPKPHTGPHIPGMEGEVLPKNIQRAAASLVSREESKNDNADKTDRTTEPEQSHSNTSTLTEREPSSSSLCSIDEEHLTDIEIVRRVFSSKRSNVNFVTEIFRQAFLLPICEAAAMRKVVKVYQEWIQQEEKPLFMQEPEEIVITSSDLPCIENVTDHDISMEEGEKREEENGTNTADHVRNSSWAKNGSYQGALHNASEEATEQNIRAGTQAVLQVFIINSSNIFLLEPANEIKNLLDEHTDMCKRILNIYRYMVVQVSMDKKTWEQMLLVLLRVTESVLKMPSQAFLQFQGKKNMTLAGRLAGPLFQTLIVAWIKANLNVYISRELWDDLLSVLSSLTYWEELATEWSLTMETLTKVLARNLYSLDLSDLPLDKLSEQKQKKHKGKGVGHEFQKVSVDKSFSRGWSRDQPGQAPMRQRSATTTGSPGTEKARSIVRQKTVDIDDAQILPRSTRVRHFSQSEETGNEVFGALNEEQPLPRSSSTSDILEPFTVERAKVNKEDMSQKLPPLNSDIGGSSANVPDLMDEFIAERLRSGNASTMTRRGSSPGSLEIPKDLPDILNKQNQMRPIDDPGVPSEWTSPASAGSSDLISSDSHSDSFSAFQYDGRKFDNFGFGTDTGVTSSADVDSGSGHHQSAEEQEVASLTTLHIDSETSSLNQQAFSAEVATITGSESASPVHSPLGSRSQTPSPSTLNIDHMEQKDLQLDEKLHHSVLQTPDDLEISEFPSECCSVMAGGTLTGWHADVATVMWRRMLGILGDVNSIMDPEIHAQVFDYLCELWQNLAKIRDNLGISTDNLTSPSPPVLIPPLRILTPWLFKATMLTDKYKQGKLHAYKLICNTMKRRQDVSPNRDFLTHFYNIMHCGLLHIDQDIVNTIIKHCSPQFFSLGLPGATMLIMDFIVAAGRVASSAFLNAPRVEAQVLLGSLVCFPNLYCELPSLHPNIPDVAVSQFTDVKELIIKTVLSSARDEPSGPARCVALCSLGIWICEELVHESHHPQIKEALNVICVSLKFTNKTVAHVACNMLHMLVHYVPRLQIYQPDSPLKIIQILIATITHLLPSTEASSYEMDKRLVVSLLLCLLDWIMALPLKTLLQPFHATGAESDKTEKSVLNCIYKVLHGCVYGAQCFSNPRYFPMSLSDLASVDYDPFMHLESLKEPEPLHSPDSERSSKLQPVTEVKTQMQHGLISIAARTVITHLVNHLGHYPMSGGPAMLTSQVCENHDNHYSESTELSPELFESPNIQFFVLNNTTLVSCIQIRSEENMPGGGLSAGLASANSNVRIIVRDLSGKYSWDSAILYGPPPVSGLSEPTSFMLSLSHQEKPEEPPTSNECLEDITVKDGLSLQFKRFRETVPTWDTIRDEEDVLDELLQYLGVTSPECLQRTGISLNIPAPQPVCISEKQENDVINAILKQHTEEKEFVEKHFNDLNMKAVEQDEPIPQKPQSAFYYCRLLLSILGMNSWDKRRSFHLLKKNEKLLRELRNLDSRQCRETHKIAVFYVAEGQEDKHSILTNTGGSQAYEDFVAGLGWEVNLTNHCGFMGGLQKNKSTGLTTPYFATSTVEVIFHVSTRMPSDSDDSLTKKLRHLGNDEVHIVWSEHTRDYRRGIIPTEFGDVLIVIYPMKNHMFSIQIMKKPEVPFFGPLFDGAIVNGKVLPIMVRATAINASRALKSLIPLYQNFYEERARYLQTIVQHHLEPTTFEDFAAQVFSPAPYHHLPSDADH
UniProt Q13636: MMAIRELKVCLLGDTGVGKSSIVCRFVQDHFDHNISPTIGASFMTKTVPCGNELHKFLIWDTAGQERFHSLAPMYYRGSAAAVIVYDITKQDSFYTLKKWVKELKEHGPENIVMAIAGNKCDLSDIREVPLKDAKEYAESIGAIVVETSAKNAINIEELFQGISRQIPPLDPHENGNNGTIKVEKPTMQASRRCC
UniProt Q7Z6E9: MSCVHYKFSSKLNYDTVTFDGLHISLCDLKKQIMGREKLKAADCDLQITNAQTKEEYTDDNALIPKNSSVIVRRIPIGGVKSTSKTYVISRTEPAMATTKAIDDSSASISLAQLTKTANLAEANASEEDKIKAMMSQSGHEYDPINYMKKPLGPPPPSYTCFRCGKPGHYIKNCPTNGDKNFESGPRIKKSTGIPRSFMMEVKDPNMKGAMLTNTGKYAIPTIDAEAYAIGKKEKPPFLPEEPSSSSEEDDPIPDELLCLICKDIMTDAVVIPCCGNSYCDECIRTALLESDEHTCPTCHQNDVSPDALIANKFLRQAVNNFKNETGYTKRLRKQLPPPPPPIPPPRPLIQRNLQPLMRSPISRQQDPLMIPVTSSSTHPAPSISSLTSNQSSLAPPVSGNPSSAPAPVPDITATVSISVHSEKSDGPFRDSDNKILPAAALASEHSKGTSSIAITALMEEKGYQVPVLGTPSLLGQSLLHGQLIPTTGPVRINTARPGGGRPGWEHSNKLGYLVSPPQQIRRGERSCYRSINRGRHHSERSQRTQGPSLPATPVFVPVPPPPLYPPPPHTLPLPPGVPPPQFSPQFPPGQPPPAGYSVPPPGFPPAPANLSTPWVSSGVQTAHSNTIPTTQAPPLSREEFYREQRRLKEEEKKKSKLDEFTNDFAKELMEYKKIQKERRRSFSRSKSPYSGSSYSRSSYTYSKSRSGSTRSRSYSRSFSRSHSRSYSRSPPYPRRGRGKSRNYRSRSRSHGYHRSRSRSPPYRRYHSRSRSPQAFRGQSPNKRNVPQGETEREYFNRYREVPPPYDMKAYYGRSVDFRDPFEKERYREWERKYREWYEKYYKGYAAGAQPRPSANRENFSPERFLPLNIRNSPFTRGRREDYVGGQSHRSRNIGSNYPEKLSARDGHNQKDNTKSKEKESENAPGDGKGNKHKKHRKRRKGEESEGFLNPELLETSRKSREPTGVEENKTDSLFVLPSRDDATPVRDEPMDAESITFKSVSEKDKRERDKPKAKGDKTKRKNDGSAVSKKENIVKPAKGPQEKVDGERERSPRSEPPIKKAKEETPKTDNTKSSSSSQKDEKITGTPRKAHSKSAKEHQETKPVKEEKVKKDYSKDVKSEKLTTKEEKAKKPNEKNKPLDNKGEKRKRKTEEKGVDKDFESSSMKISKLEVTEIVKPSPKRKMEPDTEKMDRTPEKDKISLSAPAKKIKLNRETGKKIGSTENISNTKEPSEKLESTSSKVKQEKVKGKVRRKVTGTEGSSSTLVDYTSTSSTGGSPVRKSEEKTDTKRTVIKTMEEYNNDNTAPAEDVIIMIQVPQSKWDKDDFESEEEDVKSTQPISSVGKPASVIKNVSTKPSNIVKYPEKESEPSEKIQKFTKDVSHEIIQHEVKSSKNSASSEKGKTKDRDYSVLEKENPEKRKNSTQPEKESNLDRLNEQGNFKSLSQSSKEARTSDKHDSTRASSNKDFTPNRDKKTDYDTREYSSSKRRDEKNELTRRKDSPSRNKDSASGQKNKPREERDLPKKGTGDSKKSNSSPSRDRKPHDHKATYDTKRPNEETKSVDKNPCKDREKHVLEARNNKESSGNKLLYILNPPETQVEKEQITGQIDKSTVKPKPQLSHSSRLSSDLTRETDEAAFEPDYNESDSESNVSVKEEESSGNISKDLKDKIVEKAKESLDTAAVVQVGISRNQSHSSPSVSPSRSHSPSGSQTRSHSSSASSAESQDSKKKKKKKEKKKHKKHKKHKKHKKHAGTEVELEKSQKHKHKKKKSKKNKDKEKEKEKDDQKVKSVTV
UniProt O60671: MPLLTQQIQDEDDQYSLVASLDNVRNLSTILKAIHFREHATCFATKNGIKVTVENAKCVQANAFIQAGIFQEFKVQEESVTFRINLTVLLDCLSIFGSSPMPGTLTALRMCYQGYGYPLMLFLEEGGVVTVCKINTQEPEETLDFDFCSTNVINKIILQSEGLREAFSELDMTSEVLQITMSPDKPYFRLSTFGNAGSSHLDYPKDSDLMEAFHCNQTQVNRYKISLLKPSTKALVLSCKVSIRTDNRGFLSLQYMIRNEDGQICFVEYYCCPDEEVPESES
UniProt Q6WKZ4: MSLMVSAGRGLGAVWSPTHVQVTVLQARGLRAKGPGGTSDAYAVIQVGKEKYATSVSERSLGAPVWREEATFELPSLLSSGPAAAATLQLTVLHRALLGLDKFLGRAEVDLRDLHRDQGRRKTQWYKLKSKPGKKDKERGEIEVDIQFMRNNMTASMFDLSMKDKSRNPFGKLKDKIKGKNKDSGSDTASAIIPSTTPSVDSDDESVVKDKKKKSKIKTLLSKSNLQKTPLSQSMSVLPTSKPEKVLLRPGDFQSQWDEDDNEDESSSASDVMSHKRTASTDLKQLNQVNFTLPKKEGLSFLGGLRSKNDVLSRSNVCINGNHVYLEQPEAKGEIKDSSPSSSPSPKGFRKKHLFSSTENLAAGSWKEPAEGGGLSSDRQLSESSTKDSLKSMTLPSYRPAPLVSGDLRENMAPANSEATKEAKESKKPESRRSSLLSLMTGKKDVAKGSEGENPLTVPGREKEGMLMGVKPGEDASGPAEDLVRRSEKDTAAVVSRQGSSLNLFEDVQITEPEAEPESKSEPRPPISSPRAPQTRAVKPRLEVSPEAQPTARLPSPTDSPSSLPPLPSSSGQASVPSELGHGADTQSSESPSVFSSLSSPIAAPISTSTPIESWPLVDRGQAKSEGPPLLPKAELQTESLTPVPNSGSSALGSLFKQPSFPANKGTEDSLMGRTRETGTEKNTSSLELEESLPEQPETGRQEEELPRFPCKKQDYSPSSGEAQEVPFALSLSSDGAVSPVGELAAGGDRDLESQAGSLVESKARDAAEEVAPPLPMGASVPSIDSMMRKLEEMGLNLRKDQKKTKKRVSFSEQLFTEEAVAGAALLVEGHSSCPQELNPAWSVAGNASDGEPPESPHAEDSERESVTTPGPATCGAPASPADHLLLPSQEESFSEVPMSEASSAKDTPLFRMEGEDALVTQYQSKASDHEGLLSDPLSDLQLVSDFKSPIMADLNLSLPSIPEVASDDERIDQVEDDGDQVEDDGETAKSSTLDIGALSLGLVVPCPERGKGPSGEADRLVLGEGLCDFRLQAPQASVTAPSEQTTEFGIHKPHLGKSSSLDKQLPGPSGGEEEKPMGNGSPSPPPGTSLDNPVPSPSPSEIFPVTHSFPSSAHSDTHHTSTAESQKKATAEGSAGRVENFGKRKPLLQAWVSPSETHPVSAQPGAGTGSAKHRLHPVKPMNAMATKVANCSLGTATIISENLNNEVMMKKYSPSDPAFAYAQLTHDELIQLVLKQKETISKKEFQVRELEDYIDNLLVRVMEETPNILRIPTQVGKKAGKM
UniProt Q15291, whole entry, looked up: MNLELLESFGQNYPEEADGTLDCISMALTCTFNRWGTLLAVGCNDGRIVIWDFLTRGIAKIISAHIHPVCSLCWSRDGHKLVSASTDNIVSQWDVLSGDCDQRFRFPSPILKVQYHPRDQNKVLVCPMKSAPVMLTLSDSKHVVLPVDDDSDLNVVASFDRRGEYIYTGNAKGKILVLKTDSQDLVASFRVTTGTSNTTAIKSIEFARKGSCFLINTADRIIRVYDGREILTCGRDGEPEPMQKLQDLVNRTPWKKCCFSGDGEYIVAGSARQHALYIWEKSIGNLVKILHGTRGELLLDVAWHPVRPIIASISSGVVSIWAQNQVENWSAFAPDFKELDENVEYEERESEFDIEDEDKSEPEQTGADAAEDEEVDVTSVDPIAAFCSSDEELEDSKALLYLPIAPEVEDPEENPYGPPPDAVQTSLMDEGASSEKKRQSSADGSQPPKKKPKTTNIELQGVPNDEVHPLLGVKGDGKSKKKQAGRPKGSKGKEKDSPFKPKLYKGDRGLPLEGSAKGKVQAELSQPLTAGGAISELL
UniProt Q13637: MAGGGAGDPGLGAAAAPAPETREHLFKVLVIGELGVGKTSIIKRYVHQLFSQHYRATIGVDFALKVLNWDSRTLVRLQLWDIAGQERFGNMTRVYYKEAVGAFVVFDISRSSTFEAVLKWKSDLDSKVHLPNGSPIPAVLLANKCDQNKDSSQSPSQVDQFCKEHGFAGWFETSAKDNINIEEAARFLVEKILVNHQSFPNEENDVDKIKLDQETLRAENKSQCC

The targets below were run with C1=CC=C(C=C1)[C@H](COC2=CC3=C(C=C2)NC(=O)N3)NC(=O)C4=CC=CN(C4=O)CC5=CC(=C(C=C5)F)F (assay: log2 fold change, soluble protein after heating vs DMSO (PISA); higher = thermal stabilisation; K562 cells, 10 uM, 30 min; active = over 0.2 and 3.5 SD of the protein, either way, in both replicates (recomputed)).
Method in brief: (§1)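 Soluble protein was quantified by TMTpro 16plex LC-MS/MS after channel sums were equalised. It was obtained as the supernatant after 21,000xg for 90 min from pooled aliquots of K562 cells (2×10^6 cells/mL, 10 μM compound, 30 min) heated for 3 min across 48°C-58°C and extracted in PBS with 0.5% NP-40 at 4°C. Thermal stability values are relative to control samples and come from duplicates. They are given as log2 fold changes.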
RAB27B (UniProt O00194) was tested, and the log2 fold change was inactive: 0.019. With RALGAPA1 isoform 6 (UniProt Q6GYQ0) the log2 fold change was inactive: 0.012. RAB31 (UniProt Q13636) was tested, and the log2 fold change was inactive: -0.008. With RAB23 (UniProt Q9ULC3) the log2 fold change was inactive: 0.013. In the case of RAB3C (UniProt Q96E17), the log2 fold change is reported as inactive: 0.023. For RAD18 (UniProt Q9NS91), the log2 fold change was inactive: -0.09. In the case of RBBP6 (UniProt Q7Z6E9), the log2 fold change is reported as inactive: 0.094. In the case of RACGAP1 (UniProt Q9H0H5), the log2 fold change is reported as inactive: -0.076. For RACK1 (UniProt D6RF23), the log2 fold change was inactive: -0.046. For RAD51C (UniProt O43502), the log2 fold change was inactive: -0.032. With RALA (UniProt P11233) the log2 fold change was inactive: 0.021. RAD1 (UniProt O60671) was tested, and the log2 fold change was inactive: -0.014. In the case of RBM10 isoform 5 (UniProt P98175), the log2 fold change is reported as inactive: 0.015. RAB11FIP1 (UniProt Q6WKZ4) was tested, and the log2 fold change was inactive: 0.041. RBBP5 (UniProt Q15291) was tested, and the log2 fold change was inactive: 0.044. In the case of RBM3 (UniProt P98179), the log2 fold change is reported as inactive: 0.044. With RAP1B (UniProt F5GZG1) the log2 fold change was inactive: 0.005. With RAB33B (UniProt Q9H082) the log2 fold change was inactive: 0.003. RAP2A (UniProt P10114) was tested, and the log2 fold change was inactive: 0.025. For RBM27 (UniProt Q9P2N5), the log2 fold change was inactive: -0.015. RAB24 (UniProt Q969Q5) was tested, and the log2 fold change was inactive: 0.019. For RBM26 isoform 2 (UniProt Q5T8P6), the log2 fold change was inactive: -0.068. With RANBP2 (UniProt P49792) the log2 fold change was inactive: -0.094. RAB11A (UniProt P62491) was tested, and the log2 fold change was inactive: 0.01. RAB7A (UniProt P51149) was tested, and the log2 fold change was inactive: 0.035. For RAB1A (UniProt P62820), the log2 fold change was inactive: -0.008. RAB32 (UniProt Q13637) was tested, and the log2 fold change was inactive: -0.058. With RANBP1 (UniProt P43487) the log2 fold change was inactive: -0.048. For RAB27A (UniProt P51159), the log2 fold change was inactive: 0.011. RALGPS2 (UniProt Q86X27) was tested, and the log2 fold change was inactive: -0.069. In the case of RAB3GAP2 (UniProt Q9H2M9), the log2 fold change is reported as inactive: -0.023. With RAD23A (UniProt P54725) the log2 fold change was inactive: 0.016.

What follows are targets tested with CC1=C(SC2=C1C(=N[C@H](C3=NN=C(N32)C)CC(=O)N)C4=CC=C(C=C4)Cl)C in the same assay as above.
Method in brief: as §1
With RAB27B (UniProt O00194) the log2 fold change was inactive: 0.063. With RALGAPA1 isoform 6 (UniProt Q6GYQ0) the log2 fold change was inactive: -0.094. RAB31 (UniProt Q13636) was tested, and the log2 fold change was inactive: -0.018. With RAB23 (UniProt Q9ULC3) the log2 fold change was inactive: 0.074. In the case of RAB3C (UniProt Q96E17), the log2 fold change is reported as inactive: 0.007. RAD18 (UniProt Q9NS91) was tested, and the log2 fold change was inactive: 0.035. RBBP6 (UniProt Q7Z6E9) was tested, and the log2 fold change was inactive: 0.119. For RACGAP1 (UniProt Q9H0H5), the log2 fold change was inactive: 0.066. For RACK1 (UniProt D6RF23), the log2 fold change was inactive: -0.008. RAD51C (UniProt O43502) was tested, and the log2 fold change was inactive: 0.133. In the case of RALA (UniProt P11233), the log2 fold change is reported as inactive: 0.046. In the case of RAD1 (UniProt O60671), the log2 fold change is reported as inactive: 0.017. In the case of RBM10 isoform 5 (UniProt P98175), the log2 fold change is reported as inactive: -0.089. With RAB11FIP1 (UniProt Q6WKZ4) the log2 fold change was inactive: 0.071. With RBBP5 (UniProt Q15291) the log2 fold change was inactive: -0.016. RBM3 (UniProt P98179) was tested, and the log2 fold change was inactive: -0.162. For RAP1B (UniProt F5GZG1), the log2 fold change was inactive: 0.102. With RAB33B (UniProt Q9H082) the log2 fold change was inactive: -0.028. RAP2A (UniProt P10114) was tested, and the log2 fold change was inactive: 0.014. In the case of RBM27 (UniProt Q9P2N5), the log2 fold change is reported as inactive: 0.005. In the case of RAB24 (UniProt Q969Q5), the log2 fold change is reported as inactive: -0.001. RBM26 isoform 2 (UniProt Q5T8P6) was tested, and the log2 fold change was inactive: 0.016. For RANBP2 (UniProt P49792), the log2 fold change was inactive: 0. For RAB11A (UniProt P62491), the log2 fold change was inactive: 0.076. For RAB7A (UniProt P51149), the log2 fold change was inactive: 0.004. RAB1A (UniProt P62820) was tested, and the log2 fold change was inactive: 0.015. In the case of RAB32 (UniProt Q13637), the log2 fold change is reported as inactive: 0.016. RANBP1 (UniProt P43487) was tested, and the log2 fold change was inactive: -0.009. RAB27A (UniProt P51159) was tested, and the log2 fold change was inactive: 0.008. In the case of RALGPS2 (UniProt Q86X27), the log2 fold change is reported as inactive: 0.073. With RAB3GAP2 (UniProt Q9H2M9) the log2 fold change was inactive: -0.07. For RAD23A (UniProt P54725), the log2 fold change was inactive: 0.035.

These targets were tested with CC1=C2C(=CC=C1)N=C(N(C2=O)C3=CC=CC=C3C)CN4C=NC5=C(N=CN=C54)N in the same assay as above.
Method in brief: as §1
For RAB27B (UniProt O00194), the log2 fold change was inactive: 0.046. With RALGAPA1 isoform 6 (UniProt Q6GYQ0) the log2 fold change was inactive: 0.1. For RAB31 (UniProt Q13636), the log2 fold change was inactive: 0.017. In the case of RAB23 (UniProt Q9ULC3), the log2 fold change is reported as inactive: 0.055. With RAB3C (UniProt Q96E17) the log2 fold change was inactive: -0.026. In the case of RAD18 (UniProt Q9NS91), the log2 fold change is reported as inactive: 0.291. With RBBP6 (UniProt Q7Z6E9) the log2 fold change was inactive: -0.017. RACGAP1 (UniProt Q9H0H5) was tested, and the log2 fold change was inactive: 0.053. For RACK1 (UniProt D6RF23), the log2 fold change was inactive: 0.138. For RAD51C (UniProt O43502), the log2 fold change was inactive: 0.064. In the case of RALA (UniProt P11233), the log2 fold change is reported as inactive: 0.027. In the case of RAD1 (UniProt O60671), the log2 fold change is reported as inactive: 0.079. In the case of RBM10 isoform 5 (UniProt P98175), the log2 fold change is reported as inactive: 0.01. RAB11FIP1 (UniProt Q6WKZ4) was tested, and the log2 fold change was inactive: 0.086. In the case of RBBP5 (UniProt Q15291), the log2 fold change is reported as inactive: -0.023. With RBM3 (UniProt P98179) the log2 fold change was inactive: -0.066. For RAP1B (UniProt F5GZG1), the log2 fold change was inactive: 0.012. For RAB33B (UniProt Q9H082), the log2 fold change was inactive: 0.116. For RAP2A (UniProt P10114), the log2 fold change was inactive: 0.059. With RBM27 (UniProt Q9P2N5) the log2 fold change was inactive: 0.049. With RAB24 (UniProt Q969Q5) the log2 fold change was inactive: -0.041. RBM26 isoform 2 (UniProt Q5T8P6) was tested, and the log2 fold change was inactive: 0.144. With RANBP2 (UniProt P49792) the log2 fold change was inactive: 0.114. In the case of RAB11A (UniProt P62491), the log2 fold change is reported as inactive: 0.194. In the case of RAB7A (UniProt P51149), the log2 fold change is reported as inactive: -0.019. RAB1A (UniProt P62820) was tested, and the log2 fold change was inactive: -0.009. With RAB32 (UniProt Q13637) the log2 fold change was inactive: -0.037. With RANBP1 (UniProt P43487) the log2 fold change was inactive: -0.036. RAB27A (UniProt P51159) was tested, and the log2 fold change was inactive: 0.001. For RALGPS2 (UniProt Q86X27), the log2 fold change was inactive: -0.093. For RAB3GAP2 (UniProt Q9H2M9), the log2 fold change was inactive: 0.051. With RAD23A (UniProt P54725) the log2 fold change was inactive: 0.055.
